The list shows a part of the results.
How the values were obtained:
Test in all cases: log2 fold change, soluble protein after heating vs DMSO (PISA); higher = thermal stabilisation; K562 lysate, 10 uM; active = over 0.2 and 3.5 SD of the protein, either way, in both replicates (recomputed)
[1] = compound: NCC(=O)Nc1ccc(-n2nc(C(F)(F)F)cc2-c2ccc3c(ccc4ccccc43)c2)cc1
Method in brief: (§1)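 Dounce homogenisation of K562 pellets in PBS pH 7.4 with 1 mM MgCl2 produced a crude extract, used at 1 mg/mL protein. Exposure to 10 μM compound lasted 30 min, and aliquots were then heated for 3 min across 48°C-58°C, pooled and brought to 0.5% NP-40 at 4°C. The supernatant after 21,000xg for 90 min was quantified by TMTpro 16plex LC-MS/MS with channel sums equalised. Duplicate values are given as log-two fold change in thermal stability relative to solvent controls.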

vorinostat = compound: O=C(CCCCCCC(=O)Nc1ccccc1)NO [vorinostat]
Method in brief: as §1

silmitasertib = compound: O=C(O)c1ccc2c(c1)nc(Nc1cccc(Cl)c1)c1ccncc12 [silmitasertib]
Method in brief: as §1

[2] = compound: O=C1NC(=O)C(c2cnc3ccccn23)=C1c1cn2c3c(cc(F)cc13)CN(C(=O)N1CCCCC1)CC2
Method in brief: as §1

entospletinib = compound: c1cn2cc(-c3ccc4cn[nH]c4c3)nc(Nc3ccc(N4CCOCC4)cc3)c2n1 [entospletinib]
Method in brief: as §1

Target | log2 fold change [1] | log2 fold change (vorinostat) | log2 fold change (silmitasertib) | log2 fold change [2] | log2 fold change (entospletinib)
PRIMPOL (UniProt Q96LW4) | inactive: -0.03 | active: -0.337 | inactive: 0.034 | inactive: -0.028 | inactive: 0.029
PRKAR1A (UniProt P10644) | inactive: -0.01 | inactive: 0.003 | inactive: 0.048 | inactive: 0.02 | inactive: 0.002
PPP1R12B isoform 6 (UniProt O60237) | inactive: 0.168 | inactive: -0.063 | inactive: 0.091 | inactive: -0.005 | inactive: -0.052
PROS1 (UniProt P07225) | inactive: -0.017 | inactive: 0.048 | inactive: 0.004 | inactive: -0.016 | inactive: -0.045
PRMT6 (UniProt Q96LA8) | inactive: -0.019 | inactive: -0.059 | inactive: 0.077 | inactive: 0.027 | inactive: 0.042
PRKACB isoform 2 (UniProt P22694) | inactive: -0.014 | inactive: -0.018 | inactive: 0.054 | inactive: 0.002 | inactive: 0.042
PPP6R3 isoform 5 (UniProt Q5H9R7) | inactive: 0.001 | inactive: 0.033 | inactive: 0.01 | inactive: 0.002 | inactive: 0.012
PPIH (UniProt O43447) | inactive: -0.009 | inactive: -0.009 | inactive: 0.041 | inactive: -0.057 | inactive: 0.003
PPP1CA (UniProt P62136) | inactive: 0.03 | inactive: 0.039 | inactive: -0.005 | inactive: -0.048 | inactive: -0.05
PRDX5 (UniProt P30044) | inactive: -0.07 | inactive: 0.061 | inactive: -0.002 | inactive: 0 | inactive: 0.004
PRCP (UniProt P42785) | inactive: -0.007 | inactive: 0.138 | inactive: -0.011 | inactive: 0.003 | inactive: 0.006
PPM1G (UniProt O15355) | inactive: -0.034 | inactive: -0.074 | inactive: 0.008 | inactive: -0.01 | inactive: 0.001
PPP4R3B (UniProt Q5MIZ7) | inactive: -0.039 | inactive: 0.006 | inactive: 0.019 | inactive: 0.002 | inactive: 0.019
PPP2R5A (UniProt Q15172) | inactive: 0.015 | inactive: -0.151 | inactive: 0.036 | inactive: 0.045 | inactive: -0.018
PRMT1 (UniProt Q99873) | inactive: 0.03 | inactive: -0.196 | inactive: -0.023 | inactive: -0.017 | inactive: 0.013
PPP2CA (UniProt P67775) | inactive: -0.079 | inactive: 0.076 | inactive: -0.021 | inactive: -0.004 | inactive: 0
PREP (UniProt P48147) | inactive: 0.006 | inactive: -0.153 | inactive: 0.008 | inactive: -0.01 | inactive: 0.014
PRPF3 (UniProt O43395) | inactive: -0.046 | inactive: -0.035 | inactive: 0.063 | inactive: 0.006 | inactive: 0.011
PRKAA1 isoform 2 (UniProt Q13131) | inactive: -0.094 | inactive: -0.033 | inactive: 0.074 | inactive: 0.029 | inactive: 0.008

A second format for some results above:
Target	log2 fold change [1]	log2 fold change (vorinostat)	log2 fold change (silmitasertib)	log2 fold change [2]	log2 fold change (entospletinib)
PPP2CA (UniProt P67775)	inactive: -0.079	inactive: 0.076	inactive: -0.021	inactive: -0.004	inactive: 0
PREP (UniProt P48147)	inactive: 0.006	inactive: -0.153	inactive: 0.008	inactive: -0.01	inactive: 0.014

Further results.

Target | log2 fold change [1] | log2 fold change (vorinostat) | log2 fold change (silmitasertib) | log2 fold change [2] | log2 fold change (entospletinib)
PPP1R12A (UniProt O14974) | inactive: 0.019 | inactive: -0.018 | inactive: 0.023 | inactive: -0.006 | inactive: 0.014
PRKCQ (UniProt Q04759) | inactive: 0.014 | inactive: -0.172 | inactive: 0.009 | inactive: -0.124 | inactive: -0.008
PRKRA (UniProt O75569) | inactive: 0.023 | active: -0.773 | inactive: -0.022 | inactive: 0.024 | inactive: 0.041
PRKCB isoform 2 (UniProt P05771) | inactive: 0.046 | inactive: -0.145 | inactive: 0.012 | inactive: -0.164 | inactive: 0.004
PPP4R3A (UniProt Q6IN85) | inactive: 0 | inactive: 0.068 | inactive: -0.007 | inactive: -0.003 | inactive: -0.04
PRIM2 (UniProt P49643) | inactive: -0.008 | active: -0.296 | inactive: 0.09 | inactive: 0 | inactive: 0.003
PRMT7 (UniProt Q9NVM4) | inactive: -0.017 | inactive: -0.174 | inactive: -0.011 | inactive: 0.04 | inactive: -0.018
PPP4R2 (UniProt Q9NY27) | inactive: -0.007 | inactive: -0.053 | inactive: -0.016 | inactive: 0.023 | inactive: -0.001
PRPF4B (UniProt Q13523) | inactive: 0 | inactive: 0.108 | inactive: 0.049 | inactive: 0.004 | inactive: -0.033
PRCC (UniProt Q92733) | inactive: 0.025 | inactive: 0.145 | inactive: -0.033 | inactive: 0.019 | inactive: -0.022
PPM1B (UniProt O75688) | inactive: 0.039 | inactive: 0.039 | inactive: -0.007 | inactive: -0.012 | inactive: -0.021
PPP2R5C isoform 5 (UniProt Q13362) | inactive: 0.002 | inactive: 0.049 | inactive: 0.019 | inactive: 0.022 | inactive: 0.011
PPM1A isoform 3 (UniProt P35813) | inactive: 0.14 | inactive: -0.025 | inactive: 0.044 | inactive: -0.069 | inactive: -0.011
PRDX1 (UniProt Q06830) | inactive: 0.005 | inactive: 0.122 | inactive: -0.024 | inactive: -0.005 | inactive: 0.017
PPP2R2A isoform 2 (UniProt P63151) | inactive: 0.034 | inactive: 0.077 | inactive: -0.032 | inactive: 0.011 | inactive: 0
PRPF4 (UniProt O43172) | inactive: 0.004 | inactive: 0.086 | inactive: 0.014 | inactive: 0.017 | inactive: 0.008
PPT2 isoform 3 (UniProt Q9UMR5) | inactive: 0.055 | active: 0.398 | inactive: 0.034 | inactive: -0.018 | inactive: -0.006
PPP1R14B (UniProt Q96C90) | inactive: 0.052 | inactive: 0.129 | inactive: -0.011 | inactive: 0.028 | inactive: -0.013
PRPF40A isoform 3 (UniProt O75400) | – | inactive: 0.017 | inactive: -0.059 | – | inactive: 0.15

Target | log2 fold change [1] | log2 fold change (vorinostat) | log2 fold change (silmitasertib) | log2 fold change [2] | log2 fold change (entospletinib)
PPP2R1B isoform 2 (UniProt P30154) | inactive: 0.065 | inactive: -0.074 | inactive: 0.008 | inactive: 0.01 | inactive: 0.006
PRIM1 (UniProt P49642) | inactive: -0.015 | active: -0.284 | inactive: 0.049 | inactive: 0.024 | inactive: 0.035
PPP1R11 (UniProt O60927) | – | active: -0.31 | inactive: 0.034 | inactive: 0.028 | inactive: -0.029
PRG2 (UniProt P13727) | – | – | – | inactive: 0.035 | inactive: 0.017
PPP1R3E (UniProt Q9H7J1) | – | inactive: 0.02 | inactive: -0.01 | – | –
PRADC1 (UniProt Q9BSG0) | – | inactive: 0.07 | inactive: -0.041 | inactive: -0.012 | –
PPP1R7 (UniProt Q15435) | inactive: -0.012 | inactive: 0.068 | inactive: -0.003 | inactive: -0.006 | inactive: -0.013
PPP1R12C isoform 3 (UniProt Q9BZL4) | – | – | – | inactive: -0.038 | –
PPP2R3B (UniProt Q9Y5P8) | – | – | – | inactive: -0.007 | –
PPIL3 (UniProt Q9H2H8) | inactive: 0.084 | inactive: -0.155 | inactive: -0.022 | inactive: 0.029 | inactive: -0.016
PRMT9 (UniProt Q6P2P2) | inactive: 0.008 | inactive: 0.002 | inactive: -0.013 | inactive: 0.019 | inactive: 0.002
PRMT8 (UniProt Q9NR22) | inactive: 0.067 | inactive: -0.157 | inactive: -0.018 | inactive: -0.017 | inactive: 0.002
PRPF40A (UniProt O75400) | inactive: 0.025 | inactive: -0.024 | inactive: -0.021 | inactive: -0.03 | inactive: 0
PPM1B isoform 2 (UniProt O75688) | – | – | – | – | inactive: -0.018
PPP2R3C (UniProt Q969Q6) | inactive: -0.019 | inactive: -0.362 | inactive: 0.086 | – | inactive: 0.074
PRNP (UniProt P04156) | – | inactive: -0.052 | inactive: -0.018 | inactive: -0.007 | –
PRG4 (UniProt Q92954) | – | – | – | inactive: -0.145 | –
PPP1R16A (UniProt Q96I34) | inactive: 0.057 | inactive: -0.06 | inactive: -0.247 | – | inactive: 0.215
PPP1R9A isoform 3 (UniProt Q9ULJ8) | inactive: 0.139 | inactive: 0.167 | inactive: 0.013 | inactive: -0.034 | inactive: -0.005

Source: the supplement of paper PMC10849652
